Measured values published in patent publication US20220009906A1, “ISOINDOLIN-1-ONE DERIVATIVES USEFUL AS GRK2 INHIBITORS” (priority 2020, published 2022).

Amino acid sequences for entries named in this document (tags omitted).
UniProt P25098, whole entry: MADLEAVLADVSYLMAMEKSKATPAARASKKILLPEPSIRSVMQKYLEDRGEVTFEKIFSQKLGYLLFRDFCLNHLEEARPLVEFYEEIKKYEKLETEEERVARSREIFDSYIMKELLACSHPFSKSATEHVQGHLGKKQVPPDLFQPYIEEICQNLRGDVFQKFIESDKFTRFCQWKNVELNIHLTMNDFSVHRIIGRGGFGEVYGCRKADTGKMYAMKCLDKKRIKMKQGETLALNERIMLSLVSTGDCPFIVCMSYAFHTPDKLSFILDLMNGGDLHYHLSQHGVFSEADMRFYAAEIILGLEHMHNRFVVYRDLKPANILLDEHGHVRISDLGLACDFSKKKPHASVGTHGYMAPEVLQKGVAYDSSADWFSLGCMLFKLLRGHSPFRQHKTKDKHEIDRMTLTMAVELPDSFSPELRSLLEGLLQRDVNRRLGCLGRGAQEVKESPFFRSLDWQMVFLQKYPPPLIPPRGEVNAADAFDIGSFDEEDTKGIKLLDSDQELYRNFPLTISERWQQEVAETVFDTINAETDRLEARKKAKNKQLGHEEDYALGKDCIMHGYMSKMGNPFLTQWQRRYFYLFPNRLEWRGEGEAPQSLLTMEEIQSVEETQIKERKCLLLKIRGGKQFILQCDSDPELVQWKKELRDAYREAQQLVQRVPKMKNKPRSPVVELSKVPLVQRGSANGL

Tests used:
GRK2 [1] = molecular target: T1, GRK2 (Homo sapiens, UniProt P25098); assay: GRK2 Transcreener Assay; assay type: biochemical; details: read-out: Biological Example 2 GRK2 Transcreener IC50; 10 nM GRK2; 10 μM ATP; 150 μM peptide substrate; multiple measurements listed individually
GRK2 [2] = molecular target: T1, GRK2; assay: hGRK2 LANCE Ultra In Vitro Assay; assay type: biochemical; details: read-out: Biological Example 1 GRK2 Lancer IC50; 10 nM GRK2; 30 or 600 μM ATP (not stated which); multiple measurements listed individually

**Q.** `CCOc1cccc(CN2C(=O)c3cc(-c4cn[nH]c4)ccc3C2CCN2C(=O)c3ccccc3C2=O)c1` (centres unmarked) was tested. Which IC50 (GRK2 [1]) did it give?
**A.** 1620 nM

**Q.** With `COc1cccc([C@H](C(=O)O)N2Cc3ccc(-c4cn[nH]c4)cc3C2=O)c1` as the compound, how does the IC50 (GRK2 [2]) read?
**A.** 969 nM

**Q.** Which IC50 (GRK2 [2]) does the source give for `COC(=O)C(c1cccc(OC)c1)N1Cc2ccc(-c3cn[nH]c3)cc2C1=O` (centres unmarked) here?
**A.** 237 nM

**Q.** Which IC50 (GRK2 [1]) does the source give for `COc1cccc(CN2Cc3ccc(-c4c[nH]c5ncccc45)cc3C2=O)c1` here?
**A.** 885 nM

**Q.** With `COC(=O)COc1cccc(CN2Cc3ccc(-c4cn[nH]c4)cc3C2=O)c1` as the compound, how does the IC50 (GRK2 [2]) read?
**A.** < 5 nM

Structures were worked out from names or drawings and are uncertain.
